Laboratory results taken from US9150581B2, “Nicotinic receptor compounds” (priority 2011, dated 2015).
For part of its entries the source gives two or more results. Only these are listed. An entry can have further records. The values listed for one entry differ for a reason that is not stated; some may be repeats, others may stem from another dose, organism or construct than stated.

Assays:
mice [1] = assay: Hot-plate test (antinociception); format: in vivo, mouse; conditions: @ 10 mg/kg, sc, listed as (±)-102
mice [2] = assay: Tail-flick test (antinociception); format: in vivo, mouse; conditions: @ 10 mg/kg, sc, listed as (±)-102

SMILES: O=[N+]([O-])c1ccc(-c2cc(C3CC4CCC3N4)cnc2F)cc1 (single isomer, unassigned)
- Hot-Plate, % effect at dose (mice [1]): 10% @ 10 and 5% @ 10
- Tail-Flick, % effect at dose (mice [2]): 5% @ 10 and 4% @ 10
